Among the data in PubChem BioAssay AID248 (DTP/NCI, 2004) are survivor count and T/C values, retold here.

The test system of this assay is L1210 leukemia ip in BDF1 mice, survival T/C. Kind of assay: NCI In Vivo Anticancer Drug Screen. Data for tumor model L1210 Leukemia (intraperitoneal) in B6D2F1 (BDF1) mice. The settings on record: T/C endpoint: mean survival time, higher T/C = longer survival.
Where [1] appears, read: dose: 0.18 mg/kg/injection, schedule: Q04DX002 (ip), vehicle: Klucel (hydroxypropylcellulose) (HPC).
[2] abbreviates: dose: 0.37 mg/kg/injection, schedule: Q01DX009 (ip), vehicle: saline.
The mark [3] stands for this setting: dose: 0.37 mg/kg/injection, schedule: Q04DX002 (ip), vehicle: Klucel (hydroxypropylcellulose) (HPC).
Where [4] appears, read: dose: 3.0 mg/kg/injection, schedule: Q04DX002 (ip), vehicle: saline with Tween-80.
The mark [5] stands for this setting: dose: 400.0 mg/kg/injection, schedule: Q04DX002 (ip), vehicle: saline with Tween-80.

The list does not hold the whole screen: it is rich in T/C values a quarter to a half above the control, in often repeated tests (any T/C) and in doses without a T/C. Other doses and runs of a compound stand elsewhere. T/C is the treated group as % of the vehicle group. Some entries give survivors of the animals treated and no T/C: the source holds a T/C of zero for them, seemingly a mark for toxic or unscored doses. Some survivor counts are full or nearly so, which does not show that the dose was tolerated: survival well below the control is almost never listed, so the zero probably covers shortened survival too. Counts of survivors are from the toxicity check (mostly the fifth day) where no day follows; animals may have died later. Schedule codes are those of the source, read here as Q, the interval in days (D) or hours (H), X, the number of doses. Some entries were tested several times; the results are listed from low to high. For survival time, this PubChem deposit counts one and a half times the control or more as active, and values a quarter to a half above the control carry no call in these data; other NCI protocols may use other cut-offs.

Consider `COc1cc2c(c(OC)c1OC)-c1ccc(OC)c(=O)cc1[C@@H](NC(=O)CF)CC2`, for which the survivor count (dose: 0.03 mg/kg/injection, schedule: Q01DX009 (ip), vehicle: saline with Tween-80) is listed as 3 of 3; the survivor count (dose: 0.06 mg/kg/injection, schedule: Q01DX009 (ip), vehicle: saline with Tween-80) is 3 of 3; the survivor count (dose: 0.09 mg/kg/injection, schedule: Q04DX002 (ip), vehicle: Klucel (hydroxypropylcellulose) (HPC)) is listed as 2 of 3; the survivor count (dose: 0.12 mg/kg/injection, schedule: Q01DX009 (ip), vehicle: saline with Tween-80) is reported as 3 of 3; the survivor count under setting [1] is reported as 0 of 3; the survivor count (dose: 0.25 mg/kg/injection, schedule: Q01DX009 (ip), vehicle: saline with Tween-80) is recorded as 0 of 3. Moreover, the survivor count by setting is: under setting [2], 3 of 6; under setting [3], 0 of 3; (dose: 0.5 mg/kg/injection, schedule: Q01DX009 (ip), vehicle: saline with Tween-80) 0 of 3; (dose: 0.75 mg/kg/injection, schedule: Q01DX009 (ip), vehicle: saline with Tween-80) 0 of 10; (dose: 0.75 mg/kg/injection, schedule: Q01DX009 (ip), vehicle: saline) 0 of 6 and 1 of 6; (dose: 0.75 mg/kg/injection, schedule: Q04DX002 (ip), vehicle: Klucel (hydroxypropylcellulose) (HPC)) 0 of 3. Moreover, the survivor count (dose: 0.75 mg/kg/injection, schedule: Q04DX002 (ip), vehicle: saline with Tween-80) is given as 3 of 3; the survivor count (dose: 1.0 mg/kg/injection, schedule: Q01DX009 (ip), vehicle: saline with Tween-80) is on record as 0 of 3; the survivor count (dose: 1.12 mg/kg/injection, schedule: Q01DX001 (ip), vehicle: saline with Tween-80) is given as 5 of 10; the survivor count (dose: 1.12 mg/kg/injection, schedule: Q01DX009 (ip), vehicle: saline with Tween-80) is recorded as 0 of 10; the survivor count (dose: 1.12 mg/kg/injection, schedule: Q01DX009 (ip), vehicle: saline) was 1 of 6; the survivor count (dose: 1.12 mg/kg/injection, schedule: Q04DX003 (ip), vehicle: saline with Tween-80) is given as 6 of 10. Besides, the survivor count runs as follows: (dose: 1.5 mg/kg/injection, schedule: Q04DX002 (ip), vehicle: Klucel (hydroxypropylcellulose) (HPC)) 1 of 3; (dose: 1.5 mg/kg/injection, schedule: Q04DX002 (ip), vehicle: saline with Tween-80) 2 of 3; (dose: 3.0 mg/kg/injection, schedule: Q04DX002 (ip), vehicle: Klucel (hydroxypropylcellulose) (HPC)) 1 of 3; under setting [4], 0 of 3; (dose: 6.0 mg/kg/injection, schedule: Q04DX002 (ip), vehicle: Klucel (hydroxypropylcellulose) (HPC)) 0 of 3; (dose: 6.0 mg/kg/injection, schedule: Q04DX002 (ip), vehicle: saline with Tween-80) 0 of 3. In addition, the survivor count is listed as 0 of 3 (dose: 12.5 mg/kg/injection, schedule: Q04DX002 (ip), vehicle: saline with Tween-80); 0 of 3 (dose: 25.0 mg/kg/injection, schedule: Q04DX002 (ip), vehicle: saline with Tween-80); 0 of 3 (dose: 50.0 mg/kg/injection, schedule: Q04DX002 (ip), vehicle: saline with Tween-80); 0 of 3 (dose: 100.0 mg/kg/injection, schedule: Q04DX002 (ip), vehicle: saline with Tween-80); 0 of 3 (dose: 200.0 mg/kg/injection, schedule: Q04DX002 (ip), vehicle: saline with Tween-80); 0 of 3 under setting [5]. For the same molecule, the T/C reads like this: (dose: 0.09 mg/kg/injection, schedule: Q01DX009 (ip), vehicle: saline) 128 % of control; (dose: 0.18 mg/kg/injection, schedule: Q01DX009 (ip), vehicle: saline with Tween-80) 127 % of control; under setting [1], 139 % of control; under setting [2], 131 % of control; under setting [3], 139 % of control; under setting [4], 146 % of control.

Turning to `Cc1ccc(Sc2cccc3c(C)c4cccc5c4c(c23)C[S+]5c2ccc(C)cc2)cc1` (configuration not stated), the survivor count is 0 of 6 (dose: 100.0 mg/kg/injection, schedule: Q04DX003 (ip), vehicle: saline with Tween-80); 1 of 6 (dose: 200.0 mg/kg/injection, schedule: Q04DX003 (ip), vehicle: saline with Tween-80); 0 of 6 (dose: 400.0 mg/kg/injection, schedule: Q04DX003 (ip), vehicle: saline with Tween-80).

Consider `Oc1ccc(Br)cc1/C=N\NC(=S)Nc1ccc2cn[nH]c2c1`, for which the survivor count was 2 of 4 (dose: 50.0 mg/kg/injection, schedule: Q01DX001 (ip), vehicle: carboxymethylcellulose (CMC)); 0 of 4 and 2 of 4 (dose: 100.0 mg/kg/injection, schedule: Q01DX001 (ip), vehicle: carboxymethylcellulose (CMC)); 0 of 4 (dose: 200.0 mg/kg/injection, schedule: Q01DX001 (ip), vehicle: carboxymethylcellulose (CMC)); 0 of 4 and 2 of 4 (dose: 400.0 mg/kg/injection, schedule: Q01DX001 (ip), vehicle: carboxymethylcellulose (CMC)).

Consider `NP(=O)(N1CC1)N1CC1`, for which the T/C by setting is: (dose: 2.0 mg/kg/injection, schedule: Q01DX015 (ip), vehicle: carboxymethylcellulose (CMC)) 140 % of control; (dose: 5.0 mg/kg/injection, schedule: Q01DX015 (ip), vehicle: carboxymethylcellulose (CMC)) 130 % of control; (dose: 8.0 mg/kg/injection, schedule: Q01DX001 (ip), vehicle: carboxymethylcellulose (CMC)) 131 % of control. The survivor count is given as 6 of 6 (dose: 10.0 mg/kg/injection, schedule: Q01DX015 (ip), vehicle: carboxymethylcellulose (CMC)); 0 of 4 (dose: 60.0 mg/kg/injection, schedule: Q01DX001 (ip), vehicle: carboxymethylcellulose (CMC)); 0 of 4 (dose: 120.0 mg/kg/injection, schedule: Q01DX001 (ip), vehicle: carboxymethylcellulose (CMC)).

Consider `NC(=O)/C=C/C(=O)O`, for which the survivor count reads like this: (dose: 400.0 mg/kg/injection, schedule: Q01DX009 (ip), vehicle: saline with Tween-80) 0 of 3 and 0 of 6; under setting [5], 3 of 3.

For the molecule `Cc1ncc(C(C)(O)c2ccc(Cl)cc2)n1Cc1ccccc1` (configuration not stated), the survivor count (dose: 100.0 mg/kg/injection, schedule: Q01DX009 (ip), vehicle: Klucel (hydroxypropylcellulose) (HPC)) is 3 of 3 and the survivor count (dose: 400.0 mg/kg/injection, schedule: Q01DX009 (ip), vehicle: Klucel (hydroxypropylcellulose) (HPC)) is reported as 3 of 3. In addition, the T/C (dose: 100.0 mg/kg/injection, schedule: Q04DX002 (ip), vehicle: Klucel (hydroxypropylcellulose) (HPC)) is reported as 91, 95, 97, 101 % of control; the T/C (dose: 200.0 mg/kg/injection, schedule: Q04DX002 (ip), vehicle: Klucel (hydroxypropylcellulose) (HPC)) is recorded as 91, 95, 100, 102 % of control; the T/C (dose: 400.0 mg/kg/injection, schedule: Q04DX002 (ip), vehicle: Klucel (hydroxypropylcellulose) (HPC)) is recorded as 91, 106, 107, 138 % of control.

As for `CC1CN1CO` (configuration not stated), the survivor count by setting is: (dose: 150.0 mg/kg/injection, schedule: Q01DX001 (ip), vehicle: saline) 0 of 6; (dose: 300.0 mg/kg/injection, schedule: Q01DX001 (ip), vehicle: saline) 0 of 6.

`CC(C)(CO)N(CC(=O)O)CC(=O)O`: the survivor count (dose: 400.0 mg/kg/injection, schedule: Q01DX001 (ip), vehicle: saline) is given as 1 of 4.

On to `Cc1c2cccc(Sc3ccc(F)cc3)c2c2c3c(cccc13)[S+](c1ccc(F)cc1)C2` (configuration not stated), for which the survivor count was 1 of 6 (dose: 100.0 mg/kg/injection, schedule: Q01DX001 (ip), vehicle: Klucel (hydroxypropylcellulose) (HPC)); 0 of 6 (dose: 200.0 mg/kg/injection, schedule: Q01DX001 (ip), vehicle: Klucel (hydroxypropylcellulose) (HPC)); 0 of 6 (dose: 400.0 mg/kg/injection, schedule: Q01DX001 (ip), vehicle: Klucel (hydroxypropylcellulose) (HPC)).
